One molecule from publication PMC6262466, “Towards Initial Indications for a Thiol-Based Redox Control of Arabidopsis 5-Aminolevulinic Acid Dehydratase” (Antioxidants, 2018) can be followed below.

This assay addresses 6 x His-tagged TRX f2(C112S). Description: pull-down; 100 ug purified 6 x His-tagged bait on Ni-NTA agarose in PBS; incubated 1.5 h at 4 C with Arabidopsis chloroplast extract solubilized with 1% dodecyl maltoside; five washes with PBS; eluted with 250 mM imidazole; immunoblot; only the target purified.

No constants are given. Whether binding was seen depends on the method and setting. Binding seen in cells or lysates may run through a third protein. Binding can be weak; no strength is given.

B1: recombinant His-tagged ALAD (ALAD1 without the predicted transit peptide) (enzyme, Arabidopsis thaliana, UniProt Q9SFH9 53-430, looked up)
chain: ASESGNGHAKKLGMSDAECEAAVAAGNVPEAPPVPPKPAAPVGTPIIKPLNLSRRPRRNRASPVTRAAFQETDISPANFVYPLFIHEGEEDTPIGAMPGCYRLGWRHGLVQEVAKARAVGVNSIVLFPKVPEALKNSTGDEAYNDNGLVPRTIRLLKDKYPDLIIYTDVALDPYSSDGHDGIVREDGVIMNDETVHQLCKQAVSQARAGADVVSPSDMMDGRVGAIRSALDAEGFQNVSIMSYTAKYASSFYGPFREALDSNPRFGDKKTYQMNPANYREALIEAREDEAEGADILLVKPGLPYLDIIRLLRDKSPLPIAAYQVSGEYSMIKAGGVLKMIDEEKVMMESLMCLRRAGADIILTYFALQAATCLCGEKR
notes: Arabidopsis thaliana ALAD1 (HEMB1; AT1G69740) without the predicted transit peptide (ChloroP); also called recombinant ALAD; purified ALAD; source: E. coli Rosetta(DE3), pET28a, purified (Ni-NTA agarose); not shown: His6, N-terminal, kept
In the case of B1, the binding result is “binds”.
